Results deposited as PubChem BioAssay AID652243 (Drosophila RNAi Screening Center, 2013).
Aim: 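Fly genes required for human androgen receptor driven transcription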 (primary screen). Cell system: Drosophila S2R+ cells. Reagent: long dsRNA against Drosophila genes. Time to read-out: 72 h (48 h, then 24 h hormone). Challenge: synthetic androgen R1881 at 10 nM for 24 h. Read-out: 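Firefly light from an androgen-responsive reporter and Renilla control light per well, raw and unnormalised, for each of two replicates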. Scale: firefly reporter light: higher = more light from androgen-responsive reporter; Renilla control light: higher = more constitutive control signal (cell number, transfection). Rule for the call: 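Hit when the log firefly-to-Renilla ratio dropped or increased by a fixed fold versus the mean of GFP or LacZ controls across duplicate plates; lowering cut given as 1.5 and as 3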. Meaning of the calls: active = hit: reporter lowered or raised; inactive = no hit.
The deposit covers about 24,000 reagents; shown is a random part of those with a known target gene and a result. Of all reagents, 246 (1%) are marked active. 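Plates not normalised; calls are printed but the firefly/Renilla ratio behind them is not deposited; fold cut for lowering reported inconsistently.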 Raw values vary from plate to plate and are shown uncorrected. Names joined by + are all predicted targets of the reagent. Not stated in the record: the amount of reagent.

gene knocked down | amplicon | firefly reporter light, replicate 1 | firefly reporter light, replicate 2 | Renilla control light, replicate 1 | Renilla control light, replicate 2 | Call
hoe2 (hoepel2) | DRSC00459 | 2.15e5 | 1.08e5 | 2.47e6 | 1.06e6 | inactive
MetRS (Methionyl-tRNA synthetase) | DRSC22533 | 9.02e5 | 9.91e5 | 1.39e6 | 1.15e6 | inactive
Ubc4 (Ubiquitin conjugating enzyme 4) | DRSC11312 | 8.77e5 | 8.03e5 | 1.53e6 | 1.57e6 | inactive
mats (mob as tumor suppressor) | DRSC13562 | 1.91e5 | 1.50e5 | 3.78e5 | 6.42e5 | inactive
mats (mob as tumor suppressor) | DRSC14702 | 69621 | 88333 | 5.70e5 | 7.39e5 | inactive
CG43052 | DRSC03059 | 2.12e5 | 2.63e5 | 2.85e6 | 2.88e6 | inactive
zip (zipper) | DRSC04725 | 3.66e5 | 4.80e5 | 2.45e6 | 2.44e6 | inactive
zip (zipper) | DRSC22489 | 9.60e5 | 1.08e6 | 6.51e5 | 7.37e5 | inactive
zip (zipper) | DRSC28416 | 3.64e5 | 8.20e5 | 1.01e6 | 1.62e6 | inactive
CG15880 | DRSC00474 | 1.42e5 | 1.25e5 | 9.22e5 | 9.78e5 | inactive
Orco (Odorant receptor co-receptor) | DRSC12358 | 1.06e5 | 1.13e5 | 3.23e6 | 2.23e6 | inactive
Orco (Odorant receptor co-receptor) | DRSC27061 | 3.51e5 | 2.63e5 | 6.40e5 | 3.22e5 | inactive
CG43317 | DRSC15000 | 2.30e5 | 2.24e5 | 1.97e6 | 2.07e6 | inactive
san (separation anxiety) | DRSC07695 | 3.00e5 | 2.39e5 | 2.02e6 | 1.88e6 | inactive
CG9928 | DRSC03274 | 1.02e5 | 1.54e5 | 1.08e6 | 1.19e6 | inactive
Cpr78Cb (Cuticular protein 78Cb) | DRSC11847 | 1.95e5 | 1.25e5 | 1.82e6 | 1.90e6 | inactive
Cpr78Cb (Cuticular protein 78Cb) | DRSC26957 | 3.96e5 | 2.97e5 | 7.82e5 | 4.52e5 | inactive
CG5126 | DRSC00680 | 6.51e5 | 9.47e5 | 2.30e6 | 1.87e6 | inactive
atilla | DRSC02971 | 3.19e5 | 3.20e5 | 1.60e6 | 1.71e6 | inactive
atilla | DRSC27408 | 2.89e5 | 2.68e5 | 6.60e5 | 6.74e5 | inactive
HP1D3csd (Heterochromatin Protein 1D3 chromoshadow domain) | DRSC19548 | 1.54e5 | 1.55e5 | 7.37e5 | 5.04e5 | inactive
RpS30 (Ribosomal protein S30) | DRSC15119 | 2.28e5 | 1.59e5 | 1.66e6 | 1.64e6 | inactive
RpS30 (Ribosomal protein S30) | DRSC26355 | 2.66e5 | 1.79e5 | 4.19e5 | 4.26e5 | inactive
wol (wollknaeuel) | DRSC03077 | 7.17e5 | 1.04e6 | 2.62e6 | 2.36e6 | inactive
wol (wollknaeuel) | DRSC27227 | 2.62e5 | 2.28e5 | 6.05e5 | 2.55e5 | inactive
Cyp9b2 (Cytochrome P450 9b2) | DRSC07390 | 3.47e5 | 3.14e5 | 1.38e6 | 1.24e6 | inactive
Cyp9b2 (Cytochrome P450 9b2) | DRSC24835 | 4.95e5 | 4.12e5 | 4.94e5 | 4.60e5 | inactive
CG31673 | DRSC03207 | 7.19e5 | 7.96e5 | 2.77e6 | 2.04e6 | inactive
Hers + amn | DRSC20306 | 2.78e5 | 1.14e5 | 1.18e6 | 3.36e5 | inactive
CG5849 | DRSC15893 | 3.43e5 | 3.55e5 | 3.12e6 | 3.42e6 | inactive
NT1 (Neurotrophin 1) | DRSC08530 | 1.04e5 | 1.19e5 | 1.31e6 | 1.56e6 | inactive
NT1 (Neurotrophin 1) | DRSC22895 | 8.59e5 | 1.09e6 | 1.68e6 | 1.90e6 | inactive
CG6340 | DRSC19987 | 4.59e5 | 2.16e5 | 2.25e6 | 2.36e6 | inactive
CG6340 | DRSC25288 | 9.18e5 | 1.18e6 | 9.11e5 | 9.77e5 | inactive
CG14297 | DRSC14776 | 2.05e5 | 1.83e5 | 3.21e6 | 3.01e6 | inactive
CG14297 | DRSC36939 | – | – | – | – | inactive
shps (sheepish) | DRSC14614 | 1.25e5 | 1.44e5 | 1.78e6 | 1.93e6 | inactive
CG33346 | DRSC22898 | 8.16e5 | 1.04e6 | 2.09e6 | 2.99e6 | inactive
Gar1 (Gar1 ribonucleoprotein) | DRSC04441 | 2.38e5 | 2.64e5 | 1.70e6 | 1.37e6 | inactive
Gar1 (Gar1 ribonucleoprotein) | DRSC25331 | 7.15e5 | 6.92e5 | 8.53e5 | 9.26e5 | inactive
PPO2 (Prophenoloxidase 2) | DRSC07102 | 9.12e5 | 4.18e5 | 1.36e6 | 8.17e5 | inactive
chm (chameau) | DRSC03341 | 8.20e5 | 8.60e5 | 2.09e6 | 1.72e6 | inactive
chm (chameau) | DRSC24941 | 8.40e5 | 4.25e5 | 8.34e5 | 4.68e5 | inactive
CG30380 | DRSC05069 | 1.57e5 | 2.08e5 | 3.26e5 | 3.27e5 | inactive
Bgb | DRSC08148 | 1.17e6 | 9.06e5 | 1.45e6 | 1.65e6 | inactive
Bgb | DRSC25855 | 2.39e5 | 3.29e5 | 7.50e5 | 7.86e5 | inactive
Scgbeta (Sarcoglycan beta) | DRSC15854 | 2.99e5 | 2.83e5 | 3.34e6 | 3.31e6 | inactive
fry (furry) | DRSC08993 | 1.41e5 | 1.57e5 | 3.44e5 | 3.38e5 | inactive
fry (furry) | DRSC10172 | 1.90e5 | 2.09e5 | 2.23e6 | 1.14e6 | inactive
fry (furry) | DRSC10709 | 1.25e5 | 1.12e5 | 1.73e6 | 1.39e6 | inactive
fry (furry) | DRSC10712 | 2.78e5 | 2.02e5 | 4.94e5 | 5.02e5 | inactive
Tom7 (Translocase of outer membrane 7) | DRSC05135 | 3.47e5 | 4.23e5 | 3.96e5 | 2.96e5 | inactive
Tom7 (Translocase of outer membrane 7) | DRSC07113 | 2.63e5 | 2.27e5 | 2.11e6 | 1.46e6 | inactive
CG15130 | DRSC02430 | 1.73e5 | 1.64e5 | 1.32e6 | 1.20e6 | inactive
loco (locomotion defects) | DRSC15202 | 1.64e5 | 2.04e5 | 2.59e6 | 2.57e6 | inactive
loco (locomotion defects) | DRSC16989 | 38508 | 45753 | 2.99e5 | 2.74e5 | inactive
loco (locomotion defects) | DRSC27695 | 1.73e5 | 2.04e5 | 2.70e5 | 5.96e5 | inactive
Tpc1 | DRSC15614 | 1.36e5 | 1.42e5 | 1.88e6 | 2.24e6 | inactive
Tpc1 | DRSC16074 | 61141 | 1.07e5 | 5.30e5 | 7.64e5 | inactive
Tpc1 | DRSC29490 | 5.26e5 | 3.99e5 | 9.23e5 | 9.23e5 | inactive

Limited to “Renilla control light, replicate 1” (6 entries from above):
HP1D3csd (Heterochromatin Protein 1D3 chromoshadow domain) [DRSC19548]: 7.37e5
RpS30 (Ribosomal protein S30) [DRSC15119]: 1.66e6
RpS30 (Ribosomal protein S30) [DRSC26355]: 4.19e5
wol (wollknaeuel) [DRSC03077]: 2.62e6
wol (wollknaeuel) [DRSC27227]: 6.05e5
Cyp9b2 (Cytochrome P450 9b2) [DRSC07390]: 1.38e6
